In PubChem BioAssay AID743266 (National Center for Advancing Translational Sciences (NCATS), 2014):
The whole screen tested about 410,000 compounds, of which about 310 (0.076%) were called active. Inconclusive results, whose numbers are uncertain, are shown with a selection of clear calls. Calls follow the shape of the dose curve; as a rule, active = well fitted activation curve with a large enough effect; inconclusive = small, poorly fitted or top-dose-only effect, or another doubt; inactive = no such curve, though single readings can be large or run the other way. A potency beside an inconclusive call is a rough fit, not a confirmed value. Some structures have more than one record in an assay (separate samples or runs), and their calls can disagree.

Protein sequences, listed by entry. Tags and fused reporters are not part of them.
UniProt Q03431, whole entry, looked up: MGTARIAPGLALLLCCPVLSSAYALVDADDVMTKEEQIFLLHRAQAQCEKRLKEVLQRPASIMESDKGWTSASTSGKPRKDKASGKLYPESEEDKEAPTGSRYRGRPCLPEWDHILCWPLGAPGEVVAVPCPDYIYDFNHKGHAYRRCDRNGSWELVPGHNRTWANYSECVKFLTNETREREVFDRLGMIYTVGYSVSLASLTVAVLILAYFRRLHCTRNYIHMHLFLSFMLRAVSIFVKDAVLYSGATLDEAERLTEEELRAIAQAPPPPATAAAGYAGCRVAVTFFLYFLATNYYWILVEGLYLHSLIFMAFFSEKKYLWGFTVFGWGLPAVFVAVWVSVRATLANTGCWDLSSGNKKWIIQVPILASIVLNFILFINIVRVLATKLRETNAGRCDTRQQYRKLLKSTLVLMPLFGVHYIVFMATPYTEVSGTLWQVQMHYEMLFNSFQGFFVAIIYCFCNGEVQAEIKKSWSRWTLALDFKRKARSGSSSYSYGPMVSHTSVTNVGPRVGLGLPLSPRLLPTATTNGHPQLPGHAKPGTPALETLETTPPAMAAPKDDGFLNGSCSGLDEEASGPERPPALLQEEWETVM

These compounds were tested against Parathyroid hormone/parathyroid hormone-related peptide receptor (Homo sapiens) (UniProt Q03431) (assay: qHTS for PTHR1 Agonists: Primary Screen). Conditions: HEK293 GP2 PTHR1 cells, GloSensor cAMP luminescence, 1 h; activation: at 115 µM (top of the series) unless noted; series mostly up to 115 µM.
Method in brief: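 HEK-293-derived GP2 cells expressing PTHR1 and a GloSensor cAMP reporter, 3,000/well, plated overnight, given luciferin plus IBMX (each 0.5 mM as added) for 1 h at 37 °C, then compound for 1 h at 37 °C. Luminescence was read after 15 min at room temperature.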
Also: nearly all actives have a fitted effect of over 55% in size.
Potency is read from the fitted curve at half-maximal effect.

Q: For O=C(NN1C(=O)NC2(CCCCC2)C1=O)c1ccc(Cl)c(Cl)c1, which Potency is on record?
A: inconclusive: 6.31 µM [activator, full curve, poor fit]

Q: With COc1ccc(-c2nn(-c3ccccc3)cc2C(=O)n2nnc3ccccc32)cc1 as the compound, how does the “outcome” value read?
A: inactive [at 57.5 µM]

Q: COC(=O)C1=CN(c2ccc(OC)cc2)C=C(C(=O)OC)C1c1cccc(F)c1 was tested. Which “activation” value did it give?
A: inactive: -8.64%

Q: For CS(=O)(=O)c1ccc(NCCc2ccc(S(N)(=O)=O)cc2)c([N+](=O)[O-])c1, which “outcome” value is on record?
A: inactive

Q: How did the “outcome” value turn out when COc1ccccc1NC(C)=[N+](C)CCNS(=O)(=O)c1ccc(Cl)cc1 was run?
A: inactive

Q: How did the Potency turn out when C=CCN(c1ccc(F)cc1)S(=O)(=O)c1cc(C(=O)NC2CCC(O)CC2)ccc1Cl (stereo not given) was run?
A: inconclusive: 8.91 µM [activator, partial curve, poor fit]

Q: C/C(=N\NC(=S)NCc1ccccc1)c1ccc2ccccc2c1 was tested. Which “activation” value did it give?
A: inactive: -30.8%

Q: How did the Potency turn out when CN(C)C(=O)CN1C(=O)NC2(CCCc3ccccc32)C1=O (stereo not given) was run?
A: inconclusive: 141 µM [activator, single point]

Q: Which Potency does the source give for Cc1[nH]c2ccc(C(=O)NCCCN3CCCCC3)cc2c1C here?
A: active: 17.8 µM

Q: O=C(C1CCCO1)N1CCN(S(=O)(=O)c2cc(F)ccc2F)CC1 (stereo not given) was tested. Which Potency did it give?
A: inconclusive: 100 µM [activator, partial curve, poor fit]

Q: How did the Potency turn out when CC1Cc2cc(/C(O)=C3\C(=O)C(=O)N(Cc4ccncc4)C3c3ccccc3F)ccc2O1 (stereo not given) was run?
A: inconclusive: 158 µM [activator, single point]

Q: Which “activation” value does the source give for CCOC(=O)Cc1csc(NC(=O)Nc2ccc(Cl)cc2)n1 here?
A: inactive: -41.9%

Q: How did the “activation” value turn out when COc1ccc(C(=O)NCCn2cc(SCC(=O)Nc3ccc4c(c3)OCCO4)c3ccccc32)cc1 was run?
A: inactive: -66.6%

Q: With C=CCn1c(-c2cccn(Cc3ccc(Cl)cc3Cl)c2=O)n[nH]c1=S as the compound, how does the “activation” value read?
A: inactive: -1.52% [at 57.5 µM]

Q: How did the Potency turn out when Cc1ccc(-n2c(Cn3ncc4ccccc4c3=O)n[nH]c2=S)cc1 was run?
A: inconclusive: 126 µM [activator, single point]

Q: Which Potency does the source give for [O-]/C(=C(\C(=S)Nc1cccc2ccccc12)[n+]1ccccc1)c1ccc2c(c1)OCCO2 here?
A: inconclusive: 2.24 µM [activator, full curve]

Q: For Cn1c(CNS(=O)(=O)c2ccc(Cl)cc2)n[nH]c1=S, which “outcome” value is on record?
A: inactive

Q: How did the activation turn out when COc1ccccc1Cc1c(-c2ccc(C#N)cc2)nc2ccc(Br)cn12 was run?
A: inconclusive: -28.5% [activator]

Q: Which Potency does the source give for O=C(COc1ccc([N+](=O)[O-])cc1Cl)NCC1CCCO1 (stereo not given) here?
A: inconclusive: 5.62 µM [activator, full curve, poor fit]

Q: How did the Potency turn out when CCOc1ncccc1C(=O)Nc1ccc(-c2ccc3nnc(C)n3n2)cc1 was run?
A: inconclusive: 126 µM [activator, single point]

Q: How did the Potency turn out when O=C(CCCn1cnc([N+](=O)[O-])n1)Nc1ccc(F)c(Cl)c1 was run?
A: inconclusive: 126 µM [activator, single point]

Q: With OCCNc1ncnc2c1nnn2Cc1ccccc1Cl as the compound, how does the Potency read?
A: inconclusive: 50.1 µM [activator, partial curve, poor fit]

Q: Cc1ccc(C)c(N2CCN(C(=O)CCc3nnc4n(C)c(=O)c5ccccc5n34)CC2)c1 was tested. Which “activation” value did it give?
A: inactive: 13.9%

Q: For Cc1ccc(-c2nn(-c3ccccn3)c(=O)c3ccccc23)cc1C, which “outcome” value is on record?
A: inactive

Q: For CCOc1ccc(N(CC(=O)NCc2ccc(OC)cc2)S(=O)(=O)c2c(C)[nH]c(=O)[nH]c2=O)cc1, which Potency is on record?
A: inconclusive: 100 µM [activator, single point]

Q: Which Potency does the source give for CC(C)C1C2=C(CC(C)(C)CC2=O)ON1c1ccccc1 (stereo not given) here?
A: inconclusive: 39.8 µM [activator, single point]

Q: CCCc1[nH]nc2c1C(CCc1ccccc1)C(C#N)=C(N)O2 (stereo not given) was tested. Which Potency did it give?
A: inconclusive: 1.58 µM [activator, full curve, poor fit]

Q: How did the “activation” value turn out when O=C(Nc1ccc2c(c1)Cc1ccccc1-2)c1cccnc1 was run?
A: inactive: -16.8%

Q: For N#Cc1ccccc1OCC(=O)NCc1ccccc1CN1CCCC1, which Potency is on record?
A: inconclusive: 44.7 µM [activator, partial curve, poor fit]

Q: How did the activation turn out when CC(C)c1cc(C(=O)N/N=C/c2cccnc2)cs1 was run?
A: inconclusive: -31.7% [activator]

Q: How did the Potency turn out when COc1ccc(CNC(=O)COC(=O)CCc2c[nH]c3ccccc23)cc1 was run?
A: inconclusive: 44.7 µM [activator, single point]

Q: For CCCCc1ccc(S(=O)(=O)NC2CCS(=O)(=O)C2)cc1 (stereo not given), which Potency is on record?
A: inconclusive: 44.7 µM [activator, partial curve, poor fit]

Q: Which Potency does the source give for CCn1c(SC(C)C(=O)Nc2ccc3c(c2)OCCO3)nnc1C1CC1 (stereo not given) here?
A: inconclusive: 20 µM [activator, single point]

Q: How did the Potency turn out when O=C(NCCC(=O)N1CCN(S(=O)(=O)c2ccc(F)cc2)CC1)Nc1ccccc1 was run?
A: inconclusive: 50.1 µM [activator, partial curve, poor fit]

Q: Which Potency does the source give for CC(C)(C)NC(=O)C1c2ccccc2OCC(=O)N1Cc1ccc2c(c1)OCO2 (stereo not given) here?
A: inconclusive: 126 µM [activator, single point]

Q: With O=C(NCc1ccc(F)cc1)C1CCCN1C(=O)Nc1ccccc1 (stereo not given) as the compound, how does the Potency read?
A: inconclusive: 12.6 µM [activator, partial curve]

Q: Cc1nc(N)sc1-c1ccccc1 was tested. Which activation did it give?
A: inconclusive: 84.7% [activator]

Q: For CC[C@@H](C)[C@@H]1CN([C@@H](C)CN2CCC[C@H]2CN2C(N)=NC[C@@H]2Cc2ccccc2)C(=N)N1CCc1ccc(Cl)c(Cl)c1, which “activation” value is on record?
A: inactive: -18.1%

Q: For CC(C)OC(=O)CSc1nnc(-c2ccc(Cl)cc2Cl)o1, which “activation” value is on record?
A: inactive: -10.6% [at 57.5 µM]

Q: Which “outcome” value does the source give for CN(C)CCCn1c(SCC(=O)Nc2nc(-c3cccc(Br)c3)cs2)nc2ccccc2c1=O here?
A: inactive

Q: Which Potency does the source give for CCCNC(=O)NC1C(NC(=O)NCCC)N(C)C(=O)N1C (stereo not given) here?
A: inconclusive: 5.01 µM [activator, partial curve]

Q: How did the activation turn out when CC(O)CNCCNCc1c(OCc2ccccc2)ccc2ccccc12 (stereo not given) was run?
A: inconclusive: 38.2% [activator]

Q: COc1cc(OC)cc(C(=O)NC(=S)Nc2ccc(Cl)c(C(=O)O)c2)c1 was tested. Which “activation” value did it give?
A: inactive: -5.1% [at 57.5 µM]

Q: How did the Potency turn out when COc1ccccc1C(=O)NC(=O)COC(=O)Cc1n[nH]c(=O)c2ccccc12 was run?
A: active: 50.1 µM
